The text below walks through data of article PMC5564784.

Chains of the proteins cited; added tags and fusions are not shown.
UniProt Q15562: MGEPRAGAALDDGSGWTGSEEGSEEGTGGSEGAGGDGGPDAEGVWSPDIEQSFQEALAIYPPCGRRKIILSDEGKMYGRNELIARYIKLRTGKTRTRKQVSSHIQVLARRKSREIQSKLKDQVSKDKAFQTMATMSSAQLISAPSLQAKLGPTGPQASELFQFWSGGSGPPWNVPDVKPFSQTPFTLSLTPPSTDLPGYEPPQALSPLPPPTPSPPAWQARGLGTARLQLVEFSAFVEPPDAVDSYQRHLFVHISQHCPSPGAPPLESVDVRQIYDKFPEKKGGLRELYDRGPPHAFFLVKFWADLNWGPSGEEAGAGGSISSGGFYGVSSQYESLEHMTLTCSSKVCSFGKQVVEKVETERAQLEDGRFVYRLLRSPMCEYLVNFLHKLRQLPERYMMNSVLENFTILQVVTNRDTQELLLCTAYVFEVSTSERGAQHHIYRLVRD
UniProt P46937: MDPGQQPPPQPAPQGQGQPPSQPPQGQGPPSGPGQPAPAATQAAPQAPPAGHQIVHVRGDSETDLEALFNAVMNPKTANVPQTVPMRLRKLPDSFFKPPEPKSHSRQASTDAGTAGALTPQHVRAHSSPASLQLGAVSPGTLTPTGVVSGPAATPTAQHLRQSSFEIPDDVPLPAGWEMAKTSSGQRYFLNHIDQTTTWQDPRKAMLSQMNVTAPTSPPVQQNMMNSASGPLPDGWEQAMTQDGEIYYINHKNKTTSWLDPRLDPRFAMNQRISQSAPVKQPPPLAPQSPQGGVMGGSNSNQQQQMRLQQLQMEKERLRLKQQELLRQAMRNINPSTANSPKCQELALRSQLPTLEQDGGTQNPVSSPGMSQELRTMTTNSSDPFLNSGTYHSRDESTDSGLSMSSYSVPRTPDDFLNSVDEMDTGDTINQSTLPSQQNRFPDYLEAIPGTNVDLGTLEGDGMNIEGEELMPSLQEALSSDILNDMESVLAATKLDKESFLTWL

Test in all cases: co-IP; endogenous co-immunoprecipitation from U87-MG extracts; one protein immunoprecipitated with its antibody, the other detected by immunoblot; protocol as described in ref. 45
Background: Immunoblotting shows a protein as a band on a membrane.

Test [1] has as its target T1, IKBKE (human (endogenous in U87-MG)) (UniProt Q14164).
T1 sequence: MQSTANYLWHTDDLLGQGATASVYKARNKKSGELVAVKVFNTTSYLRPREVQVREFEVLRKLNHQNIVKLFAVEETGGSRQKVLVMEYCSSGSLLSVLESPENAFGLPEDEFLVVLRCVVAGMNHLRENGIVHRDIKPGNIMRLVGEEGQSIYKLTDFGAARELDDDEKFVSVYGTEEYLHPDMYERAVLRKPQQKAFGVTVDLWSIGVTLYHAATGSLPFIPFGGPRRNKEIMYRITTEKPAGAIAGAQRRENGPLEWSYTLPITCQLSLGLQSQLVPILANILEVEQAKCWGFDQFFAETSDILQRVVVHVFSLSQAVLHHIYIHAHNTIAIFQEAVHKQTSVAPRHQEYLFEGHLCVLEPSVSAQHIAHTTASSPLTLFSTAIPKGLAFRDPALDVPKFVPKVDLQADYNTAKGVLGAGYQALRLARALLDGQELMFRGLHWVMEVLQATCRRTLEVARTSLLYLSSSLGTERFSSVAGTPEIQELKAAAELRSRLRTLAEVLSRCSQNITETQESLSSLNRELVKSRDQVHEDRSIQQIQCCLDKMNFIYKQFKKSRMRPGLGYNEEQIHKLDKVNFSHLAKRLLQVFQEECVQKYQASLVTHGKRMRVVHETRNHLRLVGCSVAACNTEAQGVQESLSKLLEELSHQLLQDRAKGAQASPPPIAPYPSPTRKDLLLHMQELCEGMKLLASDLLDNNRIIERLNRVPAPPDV

For test [2], the target named is TEA domain family member 2 (TEAD2) (human (endogenous in U87-MG)) (UniProt Q15562).
Test [3] concerns the target Yes-associated protein 1 (YAP1) (human (endogenous in U87-MG)) (UniProt P46937).

No constants are given. Whether binding was seen depends on the method and setting. Binding seen in cells or lysates may run through a third protein. Some entries that bind do so weakly or less than the wild type.

With “Yes-associated protein 1 (YAP1) (from UniProt P46937 1-504)”, in test [1], the binding result is listed as “binds”.

B1: IKBKE (protein, UniProt Q14164 1-716)
chain: MQSTANYLWHTDDLLGQGATASVYKARNKKSGELVAVKVFNTTSYLRPREVQVREFEVLRKLNHQNIVKLFAVEETGGSRQKVLVMEYCSSGSLLSVLESPENAFGLPEDEFLVVLRCVVAGMNHLRENGIVHRDIKPGNIMRLVGEEGQSIYKLTDFGAARELDDDEKFVSVYGTEEYLHPDMYERAVLRKPQQKAFGVTVDLWSIGVTLYHAATGSLPFIPFGGPRRNKEIMYRITTEKPAGAIAGAQRRENGPLEWSYTLPITCQLSLGLQSQLVPILANILEVEQAKCWGFDQFFAETSDILQRVVVHVFSLSQAVLHHIYIHAHNTIAIFQEAVHKQTSVAPRHQEYLFEGHLCVLEPSVSAQHIAHTTASSPLTLFSTAIPKGLAFRDPALDVPKFVPKVDLQADYNTAKGVLGAGYQALRLARALLDGQELMFRGLHWVMEVLQATCRRTLEVARTSLLYLSSSLGTERFSSVAGTPEIQELKAAAELRSRLRTLAEVLSRCSQNITETQESLSSLNRELVKSRDQVHEDRSIQQIQCCLDKMNFIYKQFKKSRMRPGLGYNEEQIHKLDKVNFSHLAKRLLQVFQEECVQKYQASLVTHGKRMRVVHETRNHLRLVGCSVAACNTEAQGVQESLSKLLEELSHQLLQDRAKGAQASPPPIAPYPSPTRKDLLLHMQELCEGMKLLASDLLDNNRIIERLNRVPAPPDV
Regarding B1, the binding entry in test [2] and in test [3] was “binds” each time.
